# Measurements taken from the supplement of paper PMC4604168 (melanoma cell lines).
# Some of the results follow. Single values are uncertain, as repeats are few or missing.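 The apoptosis fraction was the count of cleaved-PARP antibody-stained nuclei relative to all DNA-stained nuclei, imaged in 1,536-well plates. Screening doses were set so most cells survived, and baseline and induced cleaved-PARP levels vary greatly across cell lines.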
# Tests used:
# Assay in all cases: cleaved PARP positive nuclei fraction relative to DMSO control; melanoma cells; higher = more apoptosis
# Settings in all cases: library dose: low library concentration; 72 h
# WM115 = tested on: WM115
# WM1716 = tested on: WM1716
# WM1745 = tested on: WM1745
# WM3526 = tested on: WM3526
# WM3619 = tested on: WM3619
# WM451Lu = tested on: WM451Lu
Structure (SMILES),cleaved PARP positive nuclei fraction (WM115),cleaved PARP positive nuclei fraction (WM1716),cleaved PARP positive nuclei fraction (WM1745),cleaved PARP positive nuclei fraction (WM3526),cleaved PARP positive nuclei fraction (WM3619),cleaved PARP positive nuclei fraction (WM451Lu)
"C/C(O)=C(\C#N)C(=O)Nc1cc(Br)ccc1Br + CC(C)CCN1c2nc(Nc3cc(F)c(O)c(F)c3)ncc2N(C)C(=O)C1C [BID1870] (first compound 2 µM, partner dose 0.2 µM)",238%,64.4%,265%,86.9%,175%,182%
"N.N.[Cl][Pt][Cl] [cisplatin] + Oc1nc(-c2ccc(C(F)(F)F)cc2)nc2c1CSCC2 [XAV939] (first compound 1.6 µM, partner dose 2 µM)",191%,109%,91.6%,83.2%,117%,112%
"C[C@]12O[C@H](C[C@]1(O)CO)n1c3ccccc3c3c4c(c5c6ccccc6n2c5c31)CNC4=O [Lestaurtinib] + CO[C@@H]1[C@H](N(C)C(=O)c2ccccc2)C[C@H]2O[C@]1(C)n1c3ccccc3c3c4c(c5c6ccccc6n2c5c31)C(=O)NC4 [Midostaurin] (first compound 0.004 µM, partner dose 0.08 µM)",111%,118%,97%,43.2%,109%,125%
"O=C(Nc1cc(C(F)(F)F)cc(C(F)(F)F)c1)c1cc(Cl)ccc1O + C[As](C)SC[C@H](NC(=O)CC[C@H](N)C(=O)O)C(=O)NCC(=O)O [Darinaparsin] (first compound 0.016 µM, partner dose 0.4 µM)",157%,25.9%,95.5%,46.1%,79.9%,56%
"Cn1cnc2c(F)c(Nc3ccc(Br)cc3Cl)c(C(=O)NOCCO)cc21 [selumetinib] + O=C(Oc1ccc([N+](=O)[O-])cc1)N1CCC(C(O)(c2ccc3c(c2)OCO3)c2ccc3c(c2)OCO3)CC1 [JZL184] (first compound 0.015 µM, partner dose 1 µM)",171%,132%,82.2%,83.3%,107%,142%
"C[C@]12O[C@H](C[C@]1(O)CO)n1c3ccccc3c3c4c(c5c6ccccc6n2c5c31)CNC4=O [Lestaurtinib] + CO[C@H]1C[C@@H]2CC[C@@H](C)[C@@](O)(O2)C(=O)C(=O)N2CCCC[C@H]2C(=O)O[C@H]([C@H](C)C[C@@H]2CC[C@@H](OCCO)[C@H](OC)C2)CC(=O)[C@H](C)/C=C(\C)[C@@H](O)[C@@H](OC)C(=O)[C@H](C)C[C@H](C)/C=C/C=C/C=C/1C [everolimus] (first compound 0.004 µM, partner dose 0.02 µM)",117%,55.1%,104%,237%,97.4%,97.2%
"C=CCNC1=C2C[C@@H](C)C[C@H](OC)[C@H](O)[C@@H](C)/C=C(\C)[C@H](OC(N)=O)[C@@H](OC)/C=C\C=C(/C)C(=O)NC(=CC1=O)C2=O [Tanespimycin] + Cc1cc(SCc2sc(-c3ccc(C(F)(F)F)c(F)c3)nc2C)ccc1OCC(=O)O [GW0742] (first compound 0.002 µM, partner dose 2 µM)",101%,164%,95.9%,70.3%,100%,7.34%
"Cn1cc(C2=C(c3cn(C4CCN(Cc5ccccn5)CC4)c4ccccc34)C(=O)NC2=O)c2ccccc21 [Enzastaurin] + O=C(Nc1ccccc1)c1cc([N+](=O)[O-])ccc1Cl [GW9662] (first compound 0.8 µM, partner dose 2 µM)",96.5%,27.7%,92.8%,42.8%,96.6%,40%
"C=CCn1c(=O)c2cnc(Nc3ccc(N4CCN(C)CC4)cc3)nc2n1-c1cccc(C(C)(C)O)n1 + C/C(O)=C(\C#N)C(=O)Nc1cc(Br)ccc1Br [LFM-A13] (first compound 0.02 µM, partner dose 2 µM)",82.5%,104%,124%,75.6%,127%,161%
"Cn1cc(C2=C(c3cn(C4CCN(Cc5ccccn5)CC4)c4ccccc34)C(=O)NC2=O)c2ccccc21 [Enzastaurin] + CC1(C)NC(=O)N(c2ccc([N+](=O)[O-])c(C(F)(F)F)c2)C1=O [nilutamide] (first compound 0.8 µM, partner dose 1 µM)",50.8%,58.7%,113%,55.9%,100%,229%
"CN1CCN(c2ccc3nc(-c4c(N)c5c(F)cccc5[nH]c4=O)[nH]c3c2)CC1 [Dovitinib] + C/C(O)=C(\C#N)C(=O)Nc1cc(Br)ccc1Br [LFM-A13] (first compound 0.1 µM, partner dose 2 µM)",119%,48.3%,102%,153%,110%,89.4%
"N.N.[Cl][Pt][Cl] [cisplatin] + Cn1nnc2c(C(N)=O)ncn2c1=O [temozolomide] (first compound 1.6 µM, partner dose 2 µM)",101%,73.6%,94.1%,34.5%,103%,128%
"CCN(CC)CCCCNc1ncc2cc(-c3cc(OC)cc(OC)c3)c(NC(=O)NC(C)(C)C)nc2n1 + C/C(O)=C(\C#N)C(=O)Nc1cc(Br)ccc1Br [LFM-A13] (first compound 0.1 µM, partner dose 2 µM)",146%,79.2%,114%,48%,90.6%,117%
"C[C@]12O[C@H](C[C@]1(O)CO)n1c3ccccc3c3c4c(c5c6ccccc6n2c5c31)CNC4=O [Lestaurtinib] + CN(c1ncccc1CNc1nc(Nc2ccc3c(c2)CC(=O)N3)ncc1C(F)(F)F)S(C)(=O)=O [PF562271] (first compound 0.004 µM, partner dose 0.08 µM)",150%,72.8%,98.6%,189%,101%,34.6%
"Cn1cc(C2=C(c3cn(C4CCN(Cc5ccccn5)CC4)c4ccccc34)C(=O)NC2=O)c2ccccc21 [Enzastaurin] + COc1ccc(-c2ccc3c(N4CCOCC4)nc(N4C[C@@H](C)O[C@@H](C)C4)nc3n2)cc1CO [KU0063794] (first compound 0.8 µM, partner dose 0.02 µM)",109%,35.5%,84.8%,158%,102%,34%
"CCCCCCCCCCCCCCCCCCOP(=O)([O-])OC1CC[N+](C)(C)CC1 [Perifosine] + C[As](C)SC[C@H](NC(=O)CC[C@H](N)C(=O)O)C(=O)NCC(=O)O [Darinaparsin] (first compound 0.4 µM, partner dose 0.4 µM)",72.2%,128%,129%,28.7%,89.8%,74.8%
"C[C@@H]1CCN(C(=O)CC#N)C[C@@H]1N(C)c1ncnc2[nH]ccc12 + Cc1cc(SCc2sc(-c3ccc(C(F)(F)F)c(F)c3)nc2C)ccc1OCC(=O)O [GW0742] (first compound 1 µM, partner dose 2 µM)",67.6%,55.3%,98.3%,51.1%,79.9%,79.9%
"Cn1cc(C2=C(c3cn(C4CCN(Cc5ccccn5)CC4)c4ccccc34)C(=O)NC2=O)c2ccccc21 [Enzastaurin] + CN(NC(=O)CC(=O)NN(C)C(=S)c1ccccc1)C(=S)c1ccccc1 [STA4783] (first compound 0.8 µM, partner dose 0.006 µM)",31.9%,261%,336%,35.8%,210%,49.8%
"COc1cc([C@@H]2c3cc4c(cc3[C@@H](O[C@@H]3O[C@@H]5CO[C@@H](C)O[C@H]5[C@H](O)[C@H]3O)[C@H]3COC(=O)[C@H]23)OCO4)cc(OC)c1O [etoposide] + O=C(Oc1ccc([N+](=O)[O-])cc1)N1CCC(C(O)(c2ccc3c(c2)OCO3)c2ccc3c(c2)OCO3)CC1 [JZL184] (first compound 0.02 µM, partner dose 1 µM)",140%,110%,94.3%,157%,108%,34.7%
"C[As](C)SC[C@H](NC(=O)CC[C@H](N)C(=O)O)C(=O)NCC(=O)O [Darinaparsin] + O=C1NC(=O)/C(=C/c2ccc(-c3ccc(F)cc3O)o2)S1 [AS252424] (first compound 0.4 µM, partner dose 1 µM)",111%,101%,114%,40.5%,72.5%,715%
"Cc1cc(SCc2sc(-c3ccc(C(F)(F)F)c(F)c3)nc2C)ccc1OCC(=O)O + CCCCCCCCCCCC1=C(O)C(=O)C=C(O)C1=O [Embelin] (first compound 2 µM, partner dose 1.2 µM)",67.1%,71.6%,103%,59%,72.5%,251%
"CNC(=O)c1cc(Oc2ccc(NC(=O)Nc3ccc(Cl)c(C(F)(F)F)c3)cc2)ccn1 [sorafenib] + O=C(Oc1ccc([N+](=O)[O-])cc1)N1CCC(C(O)(c2ccc3c(c2)OCO3)c2ccc3c(c2)OCO3)CC1 [JZL184] (first compound 0.4 µM, partner dose 1 µM)",107%,45.1%,89.5%,41.5%,75.3%,56.2%
"C[C@]12O[C@H](C[C@]1(O)CO)n1c3ccccc3c3c4c(c5c6ccccc6n2c5c31)CNC4=O [Lestaurtinib] + O=c1cc(-c2cccc3c2Sc2ccccc2S3)oc(N2CCOCC2)c1 [KU55933] (first compound 0.004 µM, partner dose 1 µM)",320%,65.9%,96.4%,350%,85.9%,38.4%
"Cn1cc(C2=C(c3cn(C4CCN(Cc5ccccn5)CC4)c4ccccc34)C(=O)NC2=O)c2ccccc21 [Enzastaurin] + CCCCCCCCc1ccc(CCC(N)(CO)CO)cc1 [fingolimod] (first compound 0.8 µM, partner dose 2 µM)",112%,206%,110%,29.2%,141%,49.1%

# Single records, from the list above.
# N.N.[Cl][Pt][Cl] [cisplatin] + Cn1nnc2c(C(N)=O)ncn2c1=O [temozolomide] (first compound 1.6 µM, partner dose 2 µM) in the list: cleaved PARP positive nuclei fraction (WM115): 101%; cleaved PARP positive nuclei fraction (WM1716): 73.6%; cleaved PARP positive nuclei fraction (WM1745): 94.1%; cleaved PARP positive nuclei fraction (WM3526): 34.5%; cleaved PARP positive nuclei fraction (WM3619): 103%; cleaved PARP positive nuclei fraction (WM451Lu): 128%
# CCCCCCCCCCCCCCCCCCOP(=O)([O-])OC1CC[N+](C)(C)CC1 [Perifosine] + C[As](C)SC[C@H](NC(=O)CC[C@H](N)C(=O)O)C(=O)NCC(=O)O [Darinaparsin] (first compound 0.4 µM, partner dose 0.4 µM) in the list: cleaved PARP positive nuclei fraction (WM115): 72.2%; cleaved PARP positive nuclei fraction (WM1716): 128%; cleaved PARP positive nuclei fraction (WM1745): 129%; cleaved PARP positive nuclei fraction (WM3526): 28.7%; cleaved PARP positive nuclei fraction (WM3619): 89.8%; cleaved PARP positive nuclei fraction (WM451Lu): 74.8%
